These are yes or no findings as the source states them, for the method shown. In cells and extracts the contact can be indirect. These calls come from enrichment with a bait or labelling near it, and not all partners need be listed. Sequences can lack the tags named with a protein.
Biological target: HA-tagged GST-POM121C (801–987) (human) (UniProt A8CG34)
Experiment: affinity purification with mass spectrometry

binding | Binder
binds | Nuclear pore complex protein Nup107 (protein, UniProt P57740 1-925) MDRSGFGEISSPVIREAEVTRTARKQSAQKRVLLQASQDENFGNTTPRNQVIPRTPSSFRQPFTPTSRSLLRQPDISCILGTGGKSPRLTQSSGFFGNLSMVTNLDDSNWAAAFSSQRSGLFTNTEPHSITEDVTISAVMLREDDPGEAASMSMFSDFLQSFLKHSSSTVFDLVEEYENICGSQVNILSKIVSRATPGLQKFSKTASMLWLLQQEMVTWRLLASLYRDRIQSALEEESVFAVTAVNASEKTVVEALFQRDSLVRQSQLVVDWLESIAKDEIGEFSDNIEFYAKSVYWENTLHTLKQRQLTSYVGSVRPLVTELDPDAPIRQKMPLDDLDREDEVRLLKYLFTLIRAGMTEEAQRLCKRCGQAWRAATLEGWKLYHDPNVNGGTELEPVEGNPYRRIWKISCWRMAEDELFNRYERAIYAALSGNLKQLLPVCDTWEDTVWAYFRVMVDSLVEQEIQTSVATLDETEELPREYLGANWTLEKVFEELQATDKKRVLEENQEHYHIVQKFLILGDIDGLMDEFSKWLSKSRNNLPGHLLRFMTHLILFFRTLGLQTKEEVSIEVLKTYIQLLIREKHTNLIAFYTCHLPQDLAVAQYALFLESVTEFEQRHHCLELAKEADLDVATITKTVVENIRKKDNGEFSHHDLAPALDTGTTEEDRLKIDVIDWLVFDPAQRAEALKQGNAIMRKFLASKKHEAAKEVFVKIPQDSIAEIYNQCEEQGMESPLPAEDDNAIREHLCIRAYLEAHETFNEWFKHMNSVPQKPALIPQPTFTEKVAHEHKEKKYEMDFGIWKGHLDALTADVKEKMYNVLLFVDGGWMVDVREDAKEDHERTHQMVLLRKLCLPMLCFLLHTILHSTGQYQECLQLADMVSSERHKLYLVFSKEELRKLLQKLRESSLMLLDQGLDPLGYEIQL
binds | Nuclear pore complex protein Nup93 (protein, UniProt Q8N1F7 1-819) MDTEGFGELLQQAEQLAAETEGISELPHVERNLQEIQQAGERLRSRTLTRTSQETADVKASVLLGSRGLDISHISQRLESLSAATTFEPLEPVKDTDIQGFLKNEKDNALLSAIEESRKRTFGMAEEYHRESMLVEWEQVKQRILHTLLASGEDALDFTQESEPSYISDVGPPGRSSLDNIEMAYARQIYIYNEKIVNGHLQPNLVDLCASVAELDDKSISDMWTMVKQMTDVLLTPATDALKNRSSVEVRMEFVRQALAYLEQSYKNYTLVTVFGNLHQAQLGGVPGTYQLVRSFLNIKLPAPLPGLQDGEVEGHPVWALIYYCMRCGDLLAASQVVNRAQHQLGEFKTWFQEYMNSKDRRLSPATENKLRLHYRRALRNNTDPYKRAVYCIIGRCDVTDNQSEVADKTEDYLWLKLNQVCFDDDGTSSPQDRLTLSQFQKQLLEDYGESHFTVNQQPFLYFQVLFLTAQFEAAVAFLFRMERLRCHAVHVALVLFELKLLLKSSGQSAQLLSHEPGDPPCLRRLNFVRLLMLYTRKFESTDPREALQYFYFLRDEKDSQGENMFLRCVSELVIESREFDMILGKLENDGSRKPGVIDKFTSDTKPIINKVASVAENKGLFEEAAKLYDLAKNADKVLELMNKLLSPVVPQISAPQSNKERLKNMALSIAERYRAQGISANKFVDSTFYLLLDLITFFDEYHSGHIDRAFDIIERLKLVPLNQESVEERVAAFRNFSDEIRHNLSEVLLATMNILFTQFKRLKGTSPSSSSRPQRVIEDRDSQLRSQARTLITFAGMIPYRTSGDTNARLVQMEVLMN

Further lines, the binder ahead of its results:

Binder | binding
Cysteinyl-tRNA synthetase, cytoplasmic (protein, UniProt P49589 1-748) MADSSGQQGKGRRVQPQWSPPAGTQPCRLHLYNSLTRNKEVFIPQDGKKVTWYCCGPTVYDASHMGHARSYISFDILRRVLKDYFKFDVFYCMNITDIDDKIIKRARQNHLFEQYREKRPEAAQLLEDVQAALKPFSVKLNETTDPDKKQMLERIQHAVQLATEPLEKAVQSRLTGEEVNSCVEVLLEEAKDLLSDWLDSTLGCDVTDNSIFSKLPKFWEGDFHRDMEALNVLPPDVLTRVSEYVPEIVNFVQKIVDNGYGYVSNGSVYFDTAKFASSEKHSYGKLVPEAVGDQKALQEGEGDLSISADRLSEKRSPNDFALWKASKPGEPSWPCPWGKGRPGWHIECSAMAGTLLGASMDIHGGGFDLRFPHHDNELAQSEAYFENDCWVRYFLHTGHLTIAGCKMSKSLKNFITIKDALKKHSARQLRLAFLMHSWKDTLDYSSNTMESALQYEKFLNEFFLNVKDILRAPVDITGQFEKWGEEEAELNKNFYDKKTAIHKALCDNVDTRTVMEEMRALVSQCNLYMAARKAVRKRPNQALLENIALYLTHMLKIFGAVEEDSSLGFPVGGPGTSLSLEATVMPYLQVLSEFREGVRKIAREQKVPEILQLSDALRDNILPELGVRFEDHEGLPTVVKLVDRNTLLKEREEKRRVEEEKRKKKEEAARRKQEQEAAKLAKMKIPPSEMFLSETDKYSKFDENGLPTHDMEGKELSKGQAKKLKKLFEAQEKLYKEYLQMAQNGSFQ | binds
Myosin-Id (protein, UniProt O94832 1-1006) MAEQESLEFGKADFVLMDTVSMPEFMANLRLRFEKGRIYTFIGEVVVSVNPYKLLNIYGRDTIEQYKGRELYERPPHLFAIADAAYKAMKRRSKDTCIVISGESGAGKTEASKYIMQYIAAITNPSQRAEVERVKNMLLKSNCVLEAFGNAKTNRNDNSSRFGKYMDINFDFKGDPIGGHINNYLLEKSRVIVQQPGERSFHSFYQLLQGGSEQMLRSLHLQKSLSSYNYIHVGAQLKSSINDAAEFRVVADAMKVIGFKPEEIQTVYKILAAILHLGNLKFVVDGDTPLIENGKVVSIIAELLSTKTDMVEKALLYRTVATGRDIIDKQHTEQEASYGRDAFAKAIYERLFCWIVTRINDIIEVKNYDTTIHGKNTVIGVLDIYGFEIFDNNSFEQFCINYCNEKLQQLFIQLVLKQEQEEYQREGIPWKHIDYFNNQIIVDLVEQQHKGIIAILDDACMNVGKVTDEMFLEALNSKLGKHAHFSSRKLCASDKILEFDRDFRIRHYAGDVVYSVIGFIDKNKDTLFQDFKRLMYNSSNPVLKNMWPEGKLSITEVTKRPLTAATLFKNSMIALVDNLASKEPYYVRCIKPNDKKSPQIFDDERCRHQVEYLGLLENVRVRRAGFAFRQTYEKFLHRYKMISEFTWPNHDLPSDKEAVKKLIERCGFQDDVAYGKTKIFIRTPRTLFTLEELRAQMLIRIVLFLQKVWRGTLARMRYKRTKAALTIIRYYRRYKVKSYIHEVARRFHGVKTMRDYGKHVKWPSPPKVLRRFEEALQTIFNRWRASQLIKSIPASDLPQVRAKVAAVEMLKGQRADLGLQRAWEGNYLASKPDTPQTSGTFVPVANELKRKDKYMNVLFSCHVRKVNRFSKVEDRAIFVTDRHLYKMDPTKQYKVMKTIPLYNLTGLSVSNGKDQLVVFHTKDNKDLIVCLFSKQPTHESRIGELVGVLVNHFKSEKRHLQVNVTNPVQCSLHGKKCTVSVETRLNQPQPDFTKNRSGFILSVPGN | binds

Reference: PMC5584925
